Data reported in publication doi:10.1101/2025.11.17.688470.
Results are given in words; binding and its absence hold for the method and conditions named. In cells and extracts the contact can be indirect. These calls come from enrichment with a bait or labelling near it, and not all partners need be listed.

Amino acid sequences for entries named in this document (tags omitted).
UniProt Q07955: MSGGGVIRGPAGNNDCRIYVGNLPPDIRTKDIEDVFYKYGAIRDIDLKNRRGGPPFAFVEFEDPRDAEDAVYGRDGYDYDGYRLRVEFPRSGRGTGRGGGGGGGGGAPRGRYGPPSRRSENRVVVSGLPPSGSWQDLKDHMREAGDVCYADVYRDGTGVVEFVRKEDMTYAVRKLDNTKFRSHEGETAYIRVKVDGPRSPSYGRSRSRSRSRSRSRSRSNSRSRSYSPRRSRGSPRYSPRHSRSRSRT

How the values were obtained:
[1] = biological target: GFP-SRSF1 wild type (Serine/arginine-rich splicing factor 1), Q07955; test: affinity purification with mass spectrometry; conditions: remark: other sources report otherwise
[2] = biological target: GFP-SRSF1 wild type (Serine/arginine-rich splicing factor 1) (UniProt Q07955); test: affinity purification with mass spectrometry

Row | binding [1] | binding [2] | Binder
1 | binds | – | hnRNP F, P52597 1-415 (protein) MMLGPEGGEGFVVKLRGLPWSCSVEDVQNFLSDCTIHDGAAGVHFIYTREGRQSGEAFVELGSEDDVKMALKKDRESMGHRYIEVFKSHRTEMDWVLKHSGPNSADSANDGFVRLRGLPFGCTKEEIVQFFSGLEIVPNGITLPVDPEGKITGEAFVQFASQELAEKALGKHKERIGHRYIEVFKSSQEEVRSYSDPPLKFMSVQRPGPYDRPGTARRYIGIVKQAGLERMRPGAYSTGYGGYEEYSGLSDGYGFTTDLFGRDLSYCLSGMYDHRYGDSEFTVQSTTGHCVHMRGLPYKATENDIYNFFSPLNPVRVHIEIGPDGRVTGEADVEFATHEEAVAAMSKDRANMQHRYIELFLNSTTGASNGAYSSQVMQGMGVSAAQATYSGLESQSVSGCYGAGYSGQNSMGGYD
2 | – | binds | SRSF7 (protein, UniProt Q16629 1-238) MSRYGRYGGETKVYVGNLGTGAGKGELERAFSYYGPLRTVWIARNPPGFAFVEFEDPRDAEDAVRGLDGKVICGSRVRVELSTGMPRRSRFDRPPARRPFDPNDRCYECGEKGHYAYDCHRYSRRRRSRSRSRSHSRSRGRRYSRSRSRSRGRRSRSASPRRSRSISLRRSRSASLRRSRSGSIKGSRYFQSPSRSRSRSRSISRPRSSRSKSRSPSPKRSRSPSGSPRRSASPERMD
3 | – | binds | hnRNP A0 (protein, UniProt Q13151 1-305) MENSQLCKLFIGGLNVQTSESGLRGHFEAFGTLTDCVVVVNPQTKRSRCFGFVTYSNVEEADAAMAASPHAVDGNTVELKRAVSREDSARPGAHAKVKKLFVGGLKGDVAEGDLIEHFSQFGTVEKAEIIADKQSGKKRGFGFVYFQNHDAADKAAVVKFHPIQGHRVEVKKAVPKEDIYSGGGGGGSRSSRGGRGGRGRGGGRDQNGLSKGGGGGYNSYGGYGGGGGGGYNAYGGGGGGSSYGGSDYGNGFGGFGSYSQHQSSYGPMKSGGGGGGGGSSWGGRSNSGPYRGGYGGGGGYGGSSF
4 | – | binds | SRSF3 (protein, UniProt P84103 1-164) MHRDSCPLDCKVYVGNLGNNGNKTELERAFGYYGPLRSVWVARNPPGFAFVEFEDPRDAADAVRELDGRTLCGCRVRVELSNGEKRSRNRGPPPSWGRRPRDDYRRRSPPPRRRSPRRRSFSRSRSRSLSRDRRRERSLSRERNHKPSRSFSRSRSRSRSNERK
